# Reference: the supplement of paper PMC3334620
# Over roughly 33,000 sequences, “E-score (-0.5 to 0.5)” has its median near -0.0014; the highest 2% begin near 0.25. The list shows a part of the results.
# Biological target: T1, Cad1 (UniProt P24813)
# T1 sequence: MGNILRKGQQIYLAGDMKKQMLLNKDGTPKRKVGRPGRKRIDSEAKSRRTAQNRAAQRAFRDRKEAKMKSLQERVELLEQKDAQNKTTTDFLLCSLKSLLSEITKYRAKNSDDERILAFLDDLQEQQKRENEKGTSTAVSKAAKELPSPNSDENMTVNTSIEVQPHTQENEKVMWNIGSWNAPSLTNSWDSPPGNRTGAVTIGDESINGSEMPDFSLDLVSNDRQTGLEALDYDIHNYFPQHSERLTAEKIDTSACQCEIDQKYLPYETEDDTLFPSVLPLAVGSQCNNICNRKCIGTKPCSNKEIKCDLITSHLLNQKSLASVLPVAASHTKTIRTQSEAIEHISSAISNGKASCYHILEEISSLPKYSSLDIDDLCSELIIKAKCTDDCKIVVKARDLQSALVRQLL
# Test: PBM E-score (8-mer binding enrichment) (E-score (-0.5 to 0.5)); higher = stronger / more preferred TF binding
# Conditions: protein concentration: 100 nM; construct: GST-full length
# Method: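 Universal 'all 10-mer' protein binding microarrays (Agilent AMADID 015681) probed with GST-tagged S. cerevisiae TFs (full-length or DBD) made by in vitro transcription/translation (PURExpress), about 100-200 nM. Bound TF was detected with fluorescent anti-GST. Each ungapped 8-mer (which stands for itself and its reverse complement) is scored by the PBM enrichment score (E-score), a modified Wilcoxon-Mann-Whitney statistic from -0.5 to +0.5, computed with the Universal PBM Analysis Suite. Scale: above 0.35 generally sequence-specific binding.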
row,Sequence,PBM E-score
1,AAGCGACT,-0.0195
2,GCTCAACA,0.0273
3,GAAACGTA,0.0881
4,CCGAGGAC,0.0745
5,ACAGTCGT,-0.0216
6,GAACAGCA,0.0268
7,GTGGCGAA,-0.0438
8,AGCAGCGA,0.127
9,AACGTTGC,0.128
10,ACGACATA,-0.0422
11,CTTAATCA,0.141
12,GTAAGGGA,-0.0748
13,AAACGGGT,0.0173
14,GCAAACCC,-0.137
15,CGCGAGTC,0.0524
16,CGAGTGTA,-0.0885
17,ACACGGAT,0.201
18,CCTATAGG,-0.123
19,CACCGCCC,-0.0109
20,CTTGCTGA,0.0349
21,ACAATACT,0.166
22,AAGCTTCA,-0.0382

# Exported tab-delimited: entries from further up.
row	Sequence	PBM E-score
20	CTTGCTGA	0.0349
21	ACAATACT	0.166
22	AAGCTTCA	-0.0382

# Following part:

row,Sequence,PBM E-score
1,CTAGGACA,0.129
2,CGATGACA,0.201
3,CTGGCGGA,-0.0596
4,GAAACATA,0.0504
5,AGGATGTC,-0.0351
6,AGTTCAGA,-0.104
7,AGGACCTG,-0.175
8,CGCTCACA,0.173
9,ATCAGCTA,0.0837
10,CTAGCCCA,-0.145
11,CCATGAAG,-0.0859
12,ATAGACGA,0.063
13,AAGTGAAA,0.152
14,CTACAACA,-0.0148
15,ACTATTGC,0.00174
16,GCGCACTA,0.115
17,GCGCGCCC,-0.0295
18,GAGGGAAC,-0.0626
19,GAGGTAAA,-0.00777
20,ACGGTATA,0.0261
21,GGAGAGCC,-0.284
22,AACGTGTC,0.0353

row,Sequence,PBM E-score
1,TCAGGAGA,0.0395
2,CCGTAACG,-0.0334
3,GGAACAAC,0.176
4,CCGCTCAC,-0.0771
5,ATCCTGCC,-0.194
6,ACGTTGGG,0.0171
7,GCTTACAC,0.23
8,ACTTAAGA,-0.00148
9,CCGTTTGA,-0.0814
10,CCGTCTGA,-0.0463
11,GTGCGGCA,0.083
12,ACAATAGC,-0.111
13,ATCGAGTG,0.0622
14,ACTTGCCG,-0.174
15,GGAGCACC,-0.0566
16,AAGCTGAA,0.0834
17,ATCAGGAC,0.114
18,AGGTTTCG,-0.0287
19,AGTATGGC,-0.021
20,CTGACAAC,0.0707
21,AAGGTGCC,-0.061
22,ATCGCCGC,0.13

row,Sequence,PBM E-score
1,GTCCGCGA,0.0898
2,CTGCAGCC,0.0208
3,CGACCACG,0.0831
4,GGCCTCCA,0.00254
5,GTTGATAA,0.188
6,GAGAATGA,0.0166
7,ACGGCTTC,-0.00745
8,AATGCGCC,-0.00918
9,CCATTTTA,0.0965
10,GGAAGGCA,0.0286
11,CGTGGCCA,-0.176
12,ATAGTAGC,0.143
13,AACTTTCT,0.00602
14,ATTTCTCC,-0.0308
15,GGACGGCA,-0.0773
16,CGGATCGC,0.189
17,GTGTGACA,0.0138
18,CGGGTTGC,0.0476
19,ACCGTTTC,-0.0432
20,CTACCGTA,-0.105
